# In publication PMC9711875:
# The chains behind the UniProt entries cited, without tags or fusion partners. Where a name states a change or a piece, a line headed by the entry shows the natural chain unless it says otherwise. A line that says so, or that is headed by a name, gives the form on record, which may keep a tag or linker.
# mutant α1-antitrypsin (A355D/I356P/P357D/M358S) (P01009, form named): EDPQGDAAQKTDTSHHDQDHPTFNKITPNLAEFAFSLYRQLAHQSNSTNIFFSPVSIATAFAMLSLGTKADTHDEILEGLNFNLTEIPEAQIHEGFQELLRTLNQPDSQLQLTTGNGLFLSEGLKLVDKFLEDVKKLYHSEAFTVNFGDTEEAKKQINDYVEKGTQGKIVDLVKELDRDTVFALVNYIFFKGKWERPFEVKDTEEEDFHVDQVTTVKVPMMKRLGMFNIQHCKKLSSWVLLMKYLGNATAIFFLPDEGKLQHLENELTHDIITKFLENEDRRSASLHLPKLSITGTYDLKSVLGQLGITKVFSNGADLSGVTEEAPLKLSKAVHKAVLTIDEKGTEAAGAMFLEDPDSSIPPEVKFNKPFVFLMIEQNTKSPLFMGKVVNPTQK
# No constants are given. Whether binding was seen depends on the method and setting.
# Columns and labels:
# [1] = molecular target: T1, proteinase 3 of human blood neutrophils (human (endogenous in blood neutrophils)) (UniProt P24158); assay: SDS-stable complex formation, immunoblot; AAT species incubated with cell-free supernatant of ionophore A23187-activated neutrophils; SDS-PAGE and anti-PR3 immunoblot; read-out is the 72 kDa AAT:PR3 complex; only the binder purified
# T1 sequence: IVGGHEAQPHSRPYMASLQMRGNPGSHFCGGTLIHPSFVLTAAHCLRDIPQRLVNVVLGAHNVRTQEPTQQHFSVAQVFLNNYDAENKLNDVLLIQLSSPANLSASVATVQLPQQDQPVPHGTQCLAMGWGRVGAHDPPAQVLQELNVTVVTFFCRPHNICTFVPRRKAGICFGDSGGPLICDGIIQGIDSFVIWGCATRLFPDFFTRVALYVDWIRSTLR
# [2] = molecular target: T2, purified proteinase 3 (human) (UniProt P24158); assay: SDS-stable complex formation, immunoblot; AAT species incubated with purified PR3; SDS-PAGE and anti-PR3 immunoblot; read-out is the 72 kDa AAT:PR3 complex; both purified
# T2 sequence: T1 sequence
substance,measurement,setting,value
mutant α1-antitrypsin (A355D/I356P/P357D/M358S) (from UniProt P01009 25-418),binding,[1],no binding
same,binding,[2],no binding
